Experimental findings from the supplement of paper PMC4604168 (melanoma cell lines) are described below.

Some of the results follow. Repeats are few or missing, and single values can be far off.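 Cells were imaged in 1,536-well plates, and nuclei stained with an antibody against cleaved PARP were counted against all DNA-stained nuclei to give the apoptosis fraction. Screening doses were chosen to leave most cells alive, and resting and induced cleaved-PARP levels differ strongly between cell lines.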

For the test, the system named is COLO792. Description: cleaved PARP positive nuclei fraction relative to DMSO control; melanoma cells; higher = more apoptosis. The settings on record: library dose: low library concentration; 72 h.
Take `CN(C)S(=O)(=O)c1ccc2c(c1)/C(=C/c1cc3c([nH]1)CCCC3)C(=O)N2` + COc1cc2ncnc(Nc3ccc(Oc4ccccc4)cc3)c2cc1OC [SrcI1] (first compound 0.4 µM, partner dose 2 µM): the “cleaved PARP positive nuclei fraction” value stood at 84.1%.
Consider `NCC(=O)Nc1ccc(-n2nc(C(F)(F)F)cc2-c2ccc3c(ccc4ccccc43)c2)cc1` + Cn1cc(/C=C2\C(=O)Nc3cccnc32)c2ccccc21 [GW441756] (first compound 1 µM, partner dose 0.4 µM), for which the “cleaved PARP positive nuclei fraction” value is 193%.
With `O=C(Nc1ccccc1)c1cc([N+](=O)[O-])ccc1Cl` + Oc1cc(-c2nc(-c3ccccc3)[nH]c2-c2ccncc2)ccc1Cl [L779450] (first compound 2 µM, partner dose 0.2 µM), the “cleaved PARP positive nuclei fraction” value is 76.3%.
Under `O=C1NC(=O)/C(=C/c2ccc(-c3ccc(F)cc3O)o2)S1` + c1cc(-c2cnn3cc(-c4ccc(OCCN5CCCCC5)cc4)cnc23)ccn1 [Dorsomorphin] (first compound 1 µM, partner dose 0.4 µM) stands 103%; under `COC(=O)c1sccc1S(=O)(=O)Nc1ccc(Nc2ccccc2)cc1OC` + COc1ccc(COc2ccc(Cc3cnc(N)nc3N)cc2OC)cc1 [GW2580] (first compound 1 µM, partner dose 1 µM), 140%.
To `COc1cc2c(Oc3ccc4[nH]c(C)cc4c3F)ncnc2cc1OCCCN1CCCC1` [cediranib] + CCN(CC)CCCCNc1ncc2cc(-c3cc(OC)cc(OC)c3)c(NC(=O)NC(C)(C)C)nc2n1 [PD173074] (first compound 0.4 µM, partner dose 0.1 µM) belongs 69.5%; to `O=C1NC(=O)/C(=C/c2ccc(-c3ccc(F)cc3O)o2)S1` + COc1cc(N2CCC(N3CCN(C)CC3)CC2)ccc1Nc1ncc(Cl)c(Nc2ccccc2S(=O)(=O)C(C)C)n1 [NVP-TAE684] (first compound 1 µM, partner dose 0.08 µM), 86%; to `O=C(O)c1ccc(-c2c[nH]c3ncc(-c4ccccc4)cc23)cc1C1CCCC1` + O=C(O)C(=O)Nc1sc2c(c1C(=O)O)CCNC2 [TCS401] (first compound 0.16 µM, partner dose 1.66667 µM), 90.5%.
Under `CN(NC(=O)CC(=O)NN(C)C(=S)c1ccccc1)C(=S)c1ccccc1` + CCN(CC)CCCCNc1ncc2cc(-c3cc(OC)cc(OC)c3)c(NC(=O)NC(C)(C)C)nc2n1 [PD173074] (first compound 0.006 µM, partner dose 0.1 µM) stands 190%; under `NCC(=O)Nc1ccc(-n2nc(C(F)(F)F)cc2-c2ccc3c(ccc4ccccc43)c2)cc1` + Cc1cc([N+](=O)[O-])ccc1NS(=O)(=O)c1cc(Cl)ccc1Cl [FH535] (first compound 1 µM, partner dose 1 µM), 101%; under `COc1ccc(COc2ccc(Cc3cnc(N)nc3N)cc2OC)cc1` + O=S(=O)(c1ccccc1)N(CC(F)(F)F)c1ccc(C(O)(C(F)(F)F)C(F)(F)F)cc1 [T0901317] (first compound 1 µM, partner dose 1.4 µM), 70.1%.
With `O=C(Nc1ccccc1)c1cc([N+](=O)[O-])ccc1Cl` + COc1ccc(COc2ccc(Cc3cnc(N)nc3N)cc2OC)cc1 [GW2580] (first compound 2 µM, partner dose 1 µM), the “cleaved PARP positive nuclei fraction” value turned out to be 67.6%.
With `NCC(=O)Nc1ccc(-n2nc(C(F)(F)F)cc2-c2ccc3c(ccc4ccccc43)c2)cc1` + COc1ccc(-c2ccc3c(N4CCOCC4)nc(N4C[C@@H](C)O[C@@H](C)C4)nc3n2)cc1CO [KU0063794] (first compound 1 µM, partner dose 0.02 µM), the “cleaved PARP positive nuclei fraction” value worked out at 145%.
To `COc1cc2c(Oc3ccc4[nH]c(C)cc4c3F)ncnc2cc1OCCCN1CCCC1` [cediranib] + COc1ccc(-c2ccc3c(N4CCOCC4)nc(N4C[C@@H](C)O[C@@H](C)C4)nc3n2)cc1CO [KU0063794] (first compound 0.4 µM, partner dose 0.02 µM) belongs 171%; to `O=S(=O)(c1ccccc1)N(CC(F)(F)F)c1ccc(C(O)(C(F)(F)F)C(F)(F)F)cc1` + CC(C)CCN1c2nc(Nc3cc(F)c(O)c(F)c3)ncc2N(C)C(=O)C1C [BID1870] (first compound 1.4 µM, partner dose 0.2 µM), 77.5%; to `NCC(=O)Nc1ccc(-n2nc(C(F)(F)F)cc2-c2ccc3c(ccc4ccccc43)c2)cc1` + COc1cc2ncnc(Nc3ccc(Oc4ccccc4)cc3)c2cc1OC [SrcI1] (first compound 1 µM, partner dose 2 µM), 96.9%.
For `NCC(=O)Nc1ccc(-n2nc(C(F)(F)F)cc2-c2ccc3c(ccc4ccccc43)c2)cc1` + O=C1NC(=O)/C(=C/c2ccc(-c3ccc(F)cc3O)o2)S1 [AS252424] (first compound 1 µM, partner dose 1 µM), the “cleaved PARP positive nuclei fraction” value turned out to be 138%.
Under `COc1cc2ncnc(Nc3ccc(Oc4ccccc4)cc3)c2cc1OC` + c1cc(-c2cnn3cc(-c4ccc(OCCN5CCCCC5)cc4)cnc23)ccn1 [Dorsomorphin] (first compound 2 µM, partner dose 0.4 µM) stands 81.1%; under `CCc1ccc(CCOc2ccc(CC3SC(=O)NC3=O)cc2)nc1` (stereo unspecified) [pioglitazone] + COC(=O)c1sccc1S(=O)(=O)Nc1ccc(Nc2ccccc2)cc1OC [GSK0660] (first compound 2 µM, partner dose 1 µM), 104%; under `O=C(Nc1ccccc1)c1cc([N+](=O)[O-])ccc1Cl` + COc1ccc2c(c1)CCC1C2CCC2(C)C(NCCCCCCN3C(=O)C=CC3=O)CCC12 [U73122] (first compound 2 µM, partner dose 0.4 µM), 143%.
Consider `COc1cc2c(Oc3ccc4[nH]c(C)cc4c3F)ncnc2cc1OCCCN1CCCC1` [cediranib] + O=C1NC(=O)/C(=C/c2ccc(-c3ccc(F)cc3O)o2)S1 [AS252424] (first compound 0.4 µM, partner dose 1 µM), for which the “cleaved PARP positive nuclei fraction” value worked out at 101%.
In the case of `O=C(O)c1ccc(-c2c[nH]c3ncc(-c4ccccc4)cc23)cc1C1CCCC1` + CCc1ccc(CCOc2ccc(CC3SC(=O)NC3=O)cc2)nc1 [pioglitazone] (first compound 0.16 µM, partner dose 2 µM), the “cleaved PARP positive nuclei fraction” value worked out at 86%.
With `COc1cc2ncnc(Nc3ccc(Oc4ccccc4)cc3)c2cc1OC` + Oc1cc(-c2nc(-c3ccccc3)[nH]c2-c2ccncc2)ccc1Cl [L779450] (first compound 2 µM, partner dose 0.2 µM), the “cleaved PARP positive nuclei fraction” value came out at 75.7%.
As for `Oc1nc(-c2ccc(C(F)(F)F)cc2)nc2c1CSCC2` + O=c1cc(-c2cccc3c2Sc2ccccc2S3)oc(N2CCOCC2)c1 [KU55933] (first compound 2 µM, partner dose 1 µM), the “cleaved PARP positive nuclei fraction” value worked out at 114%.
Under `COc1ccc(-c2ccc3c(N4CCOCC4)nc(N4C[C@@H](C)O[C@@H](C)C4)nc3n2)cc1CO` + O=S(=O)(c1ccccc1)N(CC(F)(F)F)c1ccc(C(O)(C(F)(F)F)C(F)(F)F)cc1 [T0901317] (first compound 0.02 µM, partner dose 1.4 µM) stands 87.4%; under `N#Cc1c(O)c2c(-c3ccc(-c4ccccc4O)cc3)csc2[nH]c1=O` + Cn1cc(/C=C2\C(=O)Nc3cccnc32)c2ccccc21 [GW441756] (first compound 2 µM, partner dose 0.4 µM), 48.7%.
Under `NCC(=O)Nc1ccc(-n2nc(C(F)(F)F)cc2-c2ccc3c(ccc4ccccc43)c2)cc1` + O=C(O)C(=O)Nc1sc2c(c1C(=O)O)CCNC2 [TCS401] (first compound 1 µM, partner dose 1.66667 µM) stands 129%; under `NCC(=O)Nc1ccc(-n2nc(C(F)(F)F)cc2-c2ccc3c(ccc4ccccc43)c2)cc1` + CCc1ccc(CCOc2ccc(CC3SC(=O)NC3=O)cc2)nc1 [pioglitazone] (first compound 1 µM, partner dose 2 µM), 60.8%; under `O=C(Nc1ccccc1)c1cc([N+](=O)[O-])ccc1Cl` + CC(C)CCN1c2nc(Nc3cc(F)c(O)c(F)c3)ncc2N(C)C(=O)C1C [BID1870] (first compound 2 µM, partner dose 0.2 µM), 114%.
Consider `O=C(O)c1ccc(-c2c[nH]c3ncc(-c4ccccc4)cc23)cc1C1CCCC1` + Oc1cc(-c2nc(-c3ccccc3)[nH]c2-c2ccncc2)ccc1Cl [L779450] (first compound 0.16 µM, partner dose 0.2 µM), for which the “cleaved PARP positive nuclei fraction” value was found to be 162%.
As to `CN(C)S(=O)(=O)c1ccc2c(c1)/C(=C/c1cc3c([nH]1)CCCC3)C(=O)N2` + COc1ccc(COc2ccc(Cc3cnc(N)nc3N)cc2OC)cc1 [GW2580] (first compound 0.4 µM, partner dose 1 µM), the “cleaved PARP positive nuclei fraction” value was 136%.
Under `COc1ccc(COc2ccc(Cc3cnc(N)nc3N)cc2OC)cc1` + c1cc(-c2cnn3cc(-c4ccc(OCCN5CCCCC5)cc4)cnc23)ccn1 [Dorsomorphin] (first compound 1 µM, partner dose 0.4 µM) stands 50.7%; under `COc1ccc(-c2ccc3c(N4CCOCC4)nc(N4C[C@@H](C)O[C@@H](C)C4)nc3n2)cc1CO` + Oc1cc(-c2nc(-c3ccccc3)[nH]c2-c2ccncc2)ccc1Cl [L779450] (first compound 0.02 µM, partner dose 0.2 µM), 185%.
In the case of `CCN(CC)CCCCNc1ncc2cc(-c3cc(OC)cc(OC)c3)c(NC(=O)NC(C)(C)C)nc2n1` + Cc1cc([N+](=O)[O-])ccc1NS(=O)(=O)c1cc(Cl)ccc1Cl [FH535] (first compound 0.1 µM, partner dose 1 µM), the “cleaved PARP positive nuclei fraction” value turned out to be 123%.
To `O=S(=O)(c1ccccc1)N(CC(F)(F)F)c1ccc(C(O)(C(F)(F)F)C(F)(F)F)cc1` + Cc1cc([N+](=O)[O-])ccc1NS(=O)(=O)c1cc(Cl)ccc1Cl [FH535] (first compound 1.4 µM, partner dose 1 µM) belongs 115%; to `COc1cc2ncnc(Nc3ccc(Oc4ccccc4)cc3)c2cc1OC` + O=C(O)C(=O)Nc1sc2c(c1C(=O)O)CCNC2 [TCS401] (first compound 2 µM, partner dose 1.66667 µM), 87.4%.
